From patent US10040804B2, “Compounds targeting proteins, compositions, methods, and uses thereof” (BioTheryX, Inc., priority 2016, dated 2018)
Some results were stated once for a whole list of compounds, not compound by compound.

Experiments:
Format in all cases: cell-based, human
TNF-α = TNF-α expression in LPS stimulated PBMCs (Meso Scale); conditions: equimolar concentration (FIG. 7)
Protocol: FIGS. 7 and 9C are graphs showing TNF-a expression in LPS stimulated peripheral blood mononuclear cells (PBMCs). PBMCs were plated in 96-well plates and pretreated with compound (Compound 1-9 individually) for 1 h, and then induced with 100 ng/mL LPS for 18-24 h. Cytokines in the media were measured according to MesoScale protocol. The negative control wells were treated with DMSO. Compound activity is measured as a percentage of LPS-induced activity. “Rev” is lenalidomide.
(§1) Frozen primary blood mononuclear cells (PBMCs) and frozen CD14+ mobilized peripheral blood monocytes were purchased from AllCells. Cells were quick thawed, and washed 1-time with RPMI-1640/10% FBS/1% Penicillin/1% Streptomycin and plated in 96-well plates at 200,000 cells per well. Cells were pretreated with DMSO only, Compound 5013 (lenolidamide) or the indicated compound for 1 h and then induced with 100 ng/mL lipopolysaccharide (LPS) for 18-24 h. The supernatant was analyzed for IL-1 beta, IL-6, and TNF-α using Meso Scale assay according to manufacturer's protocol. The negative control wells were treated with DMSO.
(§2) PBMCs: AllCells PB003F, Normal Peripheral Blood MNC.
(§3) Media: RPMI 1640/10% FBS/1% Pen-Strep.

IL-6 = IL-6 expression in LPS stimulated PBMCs (Meso Scale); conditions: LPS-stimulated PBMCs (FIG. 6)
Protocol: FIGS. 6 and 9B are graphs showing IL-6 expression in LPS stimulated peripheral blood mononuclear cells (PBMCs). PBMCs were plated in 96-well plates and pretreated with compound (Compound 1-9 individually) for 1 h, and then induced with 100 ng/mL LPS for 18-24 h. Cytokines were measured according to MesoScale protocol. Negative control wells were treated with DMSO. Compound activity was measured as a percentage of LPS-induced activity. “Rev” is lenalidomide.
as §1, §2, §3

IL-1β = IL-1β expression in LPS stimulated PBMCs (Meso Scale); conditions: equimolar concentration (FIG. 5)
Protocol: FIGS. 5 and 9A are graphs showing IL-1-beta expression in LPS stimulated peripheral blood mononuclear cells (PBMCs), PBMCs were plated in 96-well plates and pretreated with compound (Compound 1-9 individually) for 1 h, and then induced with 100 ng/mL LPS for 18-24 h. Cytokines in the media were measured according to MesoScale protocol. Negative control wells were treated with DMSO. Compound activity is measured as a percentage of LPS-induced activity. “Rev” is lenalidomide.
as §1, §2, §3

Compound | reduction of expression of TNF-α (TNF-α) | reduction of IL-6 levels (IL-6) | reduction of expression of IL-1-b (IL-1β)
O=C1CCC[C@H](N2Cc3sccc3C2=O)C(=O)N1 [Compound 2, (S)-3-(4-oxo-4,6-dihydro-5H-thieno[2,3-c]pyrrol-5-yl)azepane-2,7-dione] | 60-75% | 60-75% | over 80%
Cc1scc2c1CN([C@H]1CCCC(=O)NC1=O)C2=O [Compound 8, (S)-3-(1-methyl-4-oxo-4H-thieno[3,4-c]pyrrol-5(6H)-yl)azepane-2,7-dione] | 60-75% | 60-75% | over 80%
